Measured values taken from paper PMC10468518.
These are yes or no findings as the source states them, for the method shown. Binding seen in cells or lysates may run through a third protein. Some results given as binding are weak or reduced against the parent protein; the word gives no strength.

The chains behind the UniProt entries cited, without tags or fusion partners. Where a name states a change or a piece, a line headed by the entry shows the natural chain unless it says otherwise. A line that says so, or that is headed by a name, gives the form on record, which may keep a tag or linker. Residues count along the entry.
Strep-mRunx2 wild-type (Q08775, residues 80-607): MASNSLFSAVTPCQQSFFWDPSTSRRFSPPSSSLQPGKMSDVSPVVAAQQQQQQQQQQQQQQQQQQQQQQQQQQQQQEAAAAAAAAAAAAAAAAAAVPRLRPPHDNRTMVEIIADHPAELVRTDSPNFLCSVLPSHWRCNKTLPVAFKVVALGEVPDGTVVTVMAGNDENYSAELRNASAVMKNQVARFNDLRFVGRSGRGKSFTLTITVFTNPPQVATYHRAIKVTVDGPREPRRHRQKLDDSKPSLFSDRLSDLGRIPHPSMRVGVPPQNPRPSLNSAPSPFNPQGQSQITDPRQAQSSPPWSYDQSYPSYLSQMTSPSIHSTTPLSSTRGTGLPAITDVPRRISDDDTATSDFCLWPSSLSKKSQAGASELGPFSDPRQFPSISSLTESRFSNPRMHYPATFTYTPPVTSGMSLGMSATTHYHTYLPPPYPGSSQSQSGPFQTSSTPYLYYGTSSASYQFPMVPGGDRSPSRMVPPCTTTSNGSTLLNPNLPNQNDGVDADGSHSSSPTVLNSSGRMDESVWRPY
Strep-mRunx2 R235K (Q08775, form named): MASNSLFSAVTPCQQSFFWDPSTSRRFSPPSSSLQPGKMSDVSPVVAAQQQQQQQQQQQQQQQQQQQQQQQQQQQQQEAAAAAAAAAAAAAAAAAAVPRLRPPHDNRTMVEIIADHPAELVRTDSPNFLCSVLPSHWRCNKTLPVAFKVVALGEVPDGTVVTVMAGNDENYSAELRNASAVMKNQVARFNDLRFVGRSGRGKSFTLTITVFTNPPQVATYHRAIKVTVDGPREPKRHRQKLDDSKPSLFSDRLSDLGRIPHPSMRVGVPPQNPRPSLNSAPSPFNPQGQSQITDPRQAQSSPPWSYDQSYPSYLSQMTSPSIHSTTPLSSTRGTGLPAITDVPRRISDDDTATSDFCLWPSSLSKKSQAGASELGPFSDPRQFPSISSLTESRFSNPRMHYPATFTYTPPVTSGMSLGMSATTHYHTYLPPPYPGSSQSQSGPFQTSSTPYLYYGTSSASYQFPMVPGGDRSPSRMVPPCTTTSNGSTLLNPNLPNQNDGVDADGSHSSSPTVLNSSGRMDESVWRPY
Strep-mRunx2 R188K (Q08775, form named): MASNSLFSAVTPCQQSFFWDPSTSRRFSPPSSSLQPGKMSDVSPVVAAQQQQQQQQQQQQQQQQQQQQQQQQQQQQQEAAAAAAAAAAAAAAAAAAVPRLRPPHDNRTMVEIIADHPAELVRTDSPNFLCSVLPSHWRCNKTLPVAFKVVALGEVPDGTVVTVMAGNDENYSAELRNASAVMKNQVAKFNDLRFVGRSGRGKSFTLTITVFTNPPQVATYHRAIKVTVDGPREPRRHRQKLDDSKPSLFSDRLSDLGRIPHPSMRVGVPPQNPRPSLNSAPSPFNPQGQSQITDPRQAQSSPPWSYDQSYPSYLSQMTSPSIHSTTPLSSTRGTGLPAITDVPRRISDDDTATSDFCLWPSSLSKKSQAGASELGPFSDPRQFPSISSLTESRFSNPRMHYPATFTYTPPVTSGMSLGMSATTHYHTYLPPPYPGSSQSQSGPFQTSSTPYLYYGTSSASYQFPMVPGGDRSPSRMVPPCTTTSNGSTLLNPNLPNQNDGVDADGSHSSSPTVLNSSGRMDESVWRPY
Strep-mRunx2 R232K (Q08775, form named): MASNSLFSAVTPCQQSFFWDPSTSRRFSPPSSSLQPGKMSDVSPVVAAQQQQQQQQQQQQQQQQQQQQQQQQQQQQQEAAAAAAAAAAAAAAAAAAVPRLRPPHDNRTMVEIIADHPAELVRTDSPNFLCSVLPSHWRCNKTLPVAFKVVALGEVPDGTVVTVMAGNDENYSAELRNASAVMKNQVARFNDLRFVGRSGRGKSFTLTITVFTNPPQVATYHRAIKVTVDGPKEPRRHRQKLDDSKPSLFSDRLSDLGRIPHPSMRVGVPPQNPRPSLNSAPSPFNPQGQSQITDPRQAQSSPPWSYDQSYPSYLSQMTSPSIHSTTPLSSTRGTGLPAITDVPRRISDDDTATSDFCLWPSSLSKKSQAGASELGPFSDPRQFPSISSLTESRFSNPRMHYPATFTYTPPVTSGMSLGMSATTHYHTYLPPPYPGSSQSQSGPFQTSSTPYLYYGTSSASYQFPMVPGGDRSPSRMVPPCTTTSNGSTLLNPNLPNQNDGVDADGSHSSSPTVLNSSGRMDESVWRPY
Strep-mRunx2 R26K (Q08775, form named): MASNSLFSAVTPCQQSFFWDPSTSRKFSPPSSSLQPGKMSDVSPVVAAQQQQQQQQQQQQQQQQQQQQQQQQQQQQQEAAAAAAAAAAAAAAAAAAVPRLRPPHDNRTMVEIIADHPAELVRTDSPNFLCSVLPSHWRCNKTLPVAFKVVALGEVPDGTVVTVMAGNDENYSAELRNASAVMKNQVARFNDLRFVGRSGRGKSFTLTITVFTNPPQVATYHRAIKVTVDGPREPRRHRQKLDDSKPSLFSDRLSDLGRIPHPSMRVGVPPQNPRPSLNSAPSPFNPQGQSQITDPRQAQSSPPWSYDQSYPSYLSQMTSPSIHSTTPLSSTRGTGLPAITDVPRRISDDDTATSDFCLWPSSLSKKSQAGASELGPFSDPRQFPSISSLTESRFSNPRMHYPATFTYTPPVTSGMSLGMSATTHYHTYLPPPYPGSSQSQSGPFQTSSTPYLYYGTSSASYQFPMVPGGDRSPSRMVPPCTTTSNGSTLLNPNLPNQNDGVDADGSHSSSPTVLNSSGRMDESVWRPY
Strep-mRunx2 R381K (Q08775, form named): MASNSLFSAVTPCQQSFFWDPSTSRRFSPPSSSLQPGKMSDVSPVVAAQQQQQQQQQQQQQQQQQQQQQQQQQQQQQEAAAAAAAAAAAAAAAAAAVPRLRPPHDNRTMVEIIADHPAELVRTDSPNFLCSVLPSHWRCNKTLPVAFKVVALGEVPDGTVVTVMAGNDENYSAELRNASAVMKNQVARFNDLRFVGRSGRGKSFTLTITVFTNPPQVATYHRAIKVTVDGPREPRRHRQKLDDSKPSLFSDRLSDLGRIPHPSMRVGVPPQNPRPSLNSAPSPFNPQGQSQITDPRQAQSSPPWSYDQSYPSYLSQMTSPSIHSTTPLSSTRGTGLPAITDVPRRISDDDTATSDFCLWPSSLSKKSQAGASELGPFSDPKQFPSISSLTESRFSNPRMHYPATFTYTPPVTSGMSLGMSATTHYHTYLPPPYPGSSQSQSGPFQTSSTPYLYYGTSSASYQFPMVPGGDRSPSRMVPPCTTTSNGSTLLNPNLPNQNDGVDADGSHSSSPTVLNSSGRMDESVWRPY
Strep-mRunx2 R393K (Q08775, form named): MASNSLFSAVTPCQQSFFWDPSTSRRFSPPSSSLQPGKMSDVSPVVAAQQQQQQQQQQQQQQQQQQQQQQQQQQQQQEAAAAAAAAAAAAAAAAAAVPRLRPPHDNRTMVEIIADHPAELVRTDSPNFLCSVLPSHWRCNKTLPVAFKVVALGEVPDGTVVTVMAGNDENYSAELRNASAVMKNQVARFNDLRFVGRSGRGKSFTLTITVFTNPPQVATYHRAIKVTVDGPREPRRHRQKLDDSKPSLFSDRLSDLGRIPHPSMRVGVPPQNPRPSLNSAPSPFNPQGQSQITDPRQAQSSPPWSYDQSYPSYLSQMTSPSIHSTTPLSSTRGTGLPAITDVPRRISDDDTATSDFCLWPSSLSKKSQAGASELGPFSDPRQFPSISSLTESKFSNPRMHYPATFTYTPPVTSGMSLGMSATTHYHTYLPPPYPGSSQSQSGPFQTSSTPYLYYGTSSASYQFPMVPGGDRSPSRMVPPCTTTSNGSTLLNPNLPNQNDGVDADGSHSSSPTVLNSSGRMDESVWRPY
Strep-mRunx2 R25K (Q08775, form named): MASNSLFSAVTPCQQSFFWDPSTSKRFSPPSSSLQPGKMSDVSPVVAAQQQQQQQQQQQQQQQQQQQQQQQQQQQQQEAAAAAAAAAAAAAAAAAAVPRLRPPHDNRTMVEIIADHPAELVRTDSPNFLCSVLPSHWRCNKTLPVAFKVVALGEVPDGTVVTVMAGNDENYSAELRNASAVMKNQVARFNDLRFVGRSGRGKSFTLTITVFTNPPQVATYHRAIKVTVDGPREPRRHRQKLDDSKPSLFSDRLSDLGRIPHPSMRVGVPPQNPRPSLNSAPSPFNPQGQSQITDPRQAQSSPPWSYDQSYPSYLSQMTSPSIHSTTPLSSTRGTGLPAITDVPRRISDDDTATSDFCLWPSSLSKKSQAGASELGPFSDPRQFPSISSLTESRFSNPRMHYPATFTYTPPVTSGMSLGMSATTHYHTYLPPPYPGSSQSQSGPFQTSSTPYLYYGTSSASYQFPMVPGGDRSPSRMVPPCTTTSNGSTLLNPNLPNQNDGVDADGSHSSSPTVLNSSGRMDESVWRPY
Strep-mRunx2 R236K (Q08775, form named): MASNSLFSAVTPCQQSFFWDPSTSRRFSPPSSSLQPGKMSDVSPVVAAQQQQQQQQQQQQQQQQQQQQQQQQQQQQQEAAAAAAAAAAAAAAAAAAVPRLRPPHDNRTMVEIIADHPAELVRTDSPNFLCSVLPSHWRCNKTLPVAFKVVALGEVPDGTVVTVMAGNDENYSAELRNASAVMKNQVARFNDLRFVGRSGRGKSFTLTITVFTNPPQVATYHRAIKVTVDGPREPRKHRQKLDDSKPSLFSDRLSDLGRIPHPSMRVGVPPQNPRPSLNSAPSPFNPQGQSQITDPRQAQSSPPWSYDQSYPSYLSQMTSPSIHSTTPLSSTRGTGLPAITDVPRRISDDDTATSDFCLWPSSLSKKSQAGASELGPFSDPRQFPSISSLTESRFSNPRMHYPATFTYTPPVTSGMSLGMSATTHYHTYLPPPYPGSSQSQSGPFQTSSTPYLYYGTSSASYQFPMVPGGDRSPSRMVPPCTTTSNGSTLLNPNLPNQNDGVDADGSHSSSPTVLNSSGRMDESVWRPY
Strep-mRunx2 R197K (Q08775, form named): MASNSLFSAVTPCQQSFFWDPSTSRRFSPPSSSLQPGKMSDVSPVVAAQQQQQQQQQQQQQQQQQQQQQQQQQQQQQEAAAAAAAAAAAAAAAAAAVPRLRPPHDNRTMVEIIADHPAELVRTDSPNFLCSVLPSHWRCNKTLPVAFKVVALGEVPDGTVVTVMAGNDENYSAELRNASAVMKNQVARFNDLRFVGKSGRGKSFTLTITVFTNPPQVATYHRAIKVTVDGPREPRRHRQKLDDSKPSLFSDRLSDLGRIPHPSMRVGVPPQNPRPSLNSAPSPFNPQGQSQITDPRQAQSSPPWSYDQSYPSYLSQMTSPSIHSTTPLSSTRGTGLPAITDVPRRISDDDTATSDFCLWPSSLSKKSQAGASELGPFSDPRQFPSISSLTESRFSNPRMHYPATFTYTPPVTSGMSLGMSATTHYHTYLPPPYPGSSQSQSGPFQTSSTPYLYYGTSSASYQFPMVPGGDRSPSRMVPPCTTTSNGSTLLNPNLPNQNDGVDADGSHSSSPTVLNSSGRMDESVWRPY
Strep-mRunx2 R193K (Q08775, form named): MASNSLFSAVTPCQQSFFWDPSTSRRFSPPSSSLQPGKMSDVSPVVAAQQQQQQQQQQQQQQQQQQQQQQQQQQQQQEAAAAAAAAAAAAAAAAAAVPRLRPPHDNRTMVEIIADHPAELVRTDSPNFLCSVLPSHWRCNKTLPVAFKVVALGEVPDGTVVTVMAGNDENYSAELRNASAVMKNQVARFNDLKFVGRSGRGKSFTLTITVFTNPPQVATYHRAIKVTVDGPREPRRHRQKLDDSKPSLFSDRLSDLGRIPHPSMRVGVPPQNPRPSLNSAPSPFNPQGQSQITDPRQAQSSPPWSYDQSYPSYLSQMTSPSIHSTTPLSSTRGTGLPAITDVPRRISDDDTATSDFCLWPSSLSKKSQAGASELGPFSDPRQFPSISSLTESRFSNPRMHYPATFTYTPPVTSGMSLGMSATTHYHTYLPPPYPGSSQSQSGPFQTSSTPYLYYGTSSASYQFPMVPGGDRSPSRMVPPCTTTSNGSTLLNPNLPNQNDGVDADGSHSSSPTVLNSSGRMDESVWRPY
UniProt Q08024: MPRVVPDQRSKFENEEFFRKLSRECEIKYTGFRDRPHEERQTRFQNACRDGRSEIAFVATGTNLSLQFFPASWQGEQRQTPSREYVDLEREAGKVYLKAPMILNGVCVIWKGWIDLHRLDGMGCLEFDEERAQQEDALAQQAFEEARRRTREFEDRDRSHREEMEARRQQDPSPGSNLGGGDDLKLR

Key:
Assay in all cases: co-IP; 293T cells transfected with Strep-Runx2 Wt or R-to-K mutants with or without Myc-Cbfβ, 3 days; lysate incubated with MagStrep type3 XT (Strep-Tag II) magnetic beads overnight at 4 °C; washed four times with IP lysis buffer (25 mM Tris-HCl pH 7.4, 150 mM NaCl, 1% NP-40, 1 mM EDTA, 5% glycerol); immunoblot; Strep-RUNX2 expression levels adjusted to be similar
[1] = target: Strep-mRunx2 R235K (mouse) (UniProt Q08775)
[2] = target: Strep-mRunx2 R188K (mouse) (UniProt Q08775)
[3] = target: Strep-mRunx2 R232K (mouse) (UniProt Q08775)
[4] = target: Strep-mRunx2 R26K (mouse) (UniProt Q08775)
[5] = target: Strep-mRunx2 R381K (mouse) (UniProt Q08775)
[6] = target: Strep-mRunx2 R393K (mouse) (UniProt Q08775)
[7] = target: Strep-mRunx2 R25K (mouse) (UniProt Q08775)
[8] = target: Strep-mRunx2 R236K (mouse) (UniProt Q08775)
[9] = target: Strep-mRunx2 wild-type (mouse) (UniProt Q08775)
[10] = target: Strep-mRunx2 R197K (mouse) (UniProt Q08775)
[11] = target: Strep-mRunx2 R193K (mouse) (UniProt Q08775)

Measured: binding

Myc-Cbfβ (from UniProt Q08024 1-187)
binds: [1] | [2] | [3] | [4] | [5] | [6] | [7] | [8] | [9] | [10] | [11]
